Values quoted from earlier work in patent US20190091218A1 (priority 2016, published 2019).

Conditions: in vivo

O=C(O)COCCN1CCN([C@H](c2ccccc2)c2ccc(Cl)cc2)CC1 [levocetirizine]
time to peak plasma level: 0.9 h
